In the M2OR odorant receptor database:
The entries are a selection whose mix differs from that of the whole data set. Calls are pooled over several reports, among them a noisy single-well screen.

The chains behind the UniProt entries cited, without tags or fusion partners. A line that says so, or that is headed by a name, gives the form on record, which may keep a tag or linker.
UniProt Q8VGK6, as listed by the source: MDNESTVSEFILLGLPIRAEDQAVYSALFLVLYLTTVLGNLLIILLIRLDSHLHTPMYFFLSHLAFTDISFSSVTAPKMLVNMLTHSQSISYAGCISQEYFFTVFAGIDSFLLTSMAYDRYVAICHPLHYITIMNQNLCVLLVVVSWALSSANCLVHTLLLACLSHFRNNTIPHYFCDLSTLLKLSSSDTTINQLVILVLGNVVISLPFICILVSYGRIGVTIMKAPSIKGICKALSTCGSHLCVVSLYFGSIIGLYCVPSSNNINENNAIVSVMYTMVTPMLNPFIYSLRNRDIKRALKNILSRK

How the values were obtained:
Details in all cases: stereoisomer not certain
UniProt Q8VGH1 = target: T1, UniProt Q8VGH1
T1 sequence (whole entry): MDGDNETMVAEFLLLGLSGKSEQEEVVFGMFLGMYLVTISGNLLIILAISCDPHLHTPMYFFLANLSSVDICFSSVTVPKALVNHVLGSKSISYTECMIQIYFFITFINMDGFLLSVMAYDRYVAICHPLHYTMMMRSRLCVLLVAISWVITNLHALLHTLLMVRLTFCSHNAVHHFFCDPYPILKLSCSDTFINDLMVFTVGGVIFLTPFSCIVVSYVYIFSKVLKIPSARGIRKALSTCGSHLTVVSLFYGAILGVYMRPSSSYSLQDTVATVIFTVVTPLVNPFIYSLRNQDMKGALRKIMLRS
Summary of the method: (§1)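 Whether a receptor–molecule pair is responsive (active) rests on the original authors' judgment that its measured signal was statistically different from baseline. Pairs without that judgment are non-responsive (inactive). Sources used varied assay methods, commonly transient luciferase assays in mammalian cell lines.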

UniProt Q8VGJ1 = target: T2, UniProt Q8VGJ1
T2 sequence (whole entry): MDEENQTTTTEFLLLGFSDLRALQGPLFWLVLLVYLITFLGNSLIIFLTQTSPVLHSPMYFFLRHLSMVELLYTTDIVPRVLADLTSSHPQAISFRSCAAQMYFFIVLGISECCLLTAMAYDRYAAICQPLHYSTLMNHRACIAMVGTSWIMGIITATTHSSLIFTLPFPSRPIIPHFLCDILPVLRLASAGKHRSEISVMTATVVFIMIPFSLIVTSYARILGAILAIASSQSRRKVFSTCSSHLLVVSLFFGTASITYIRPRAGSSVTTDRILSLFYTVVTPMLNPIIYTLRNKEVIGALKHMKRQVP
Summary of the method: as §1

UniProt Q8VGJ3 = target: T3, UniProt Q8VGJ3
T3 sequence (whole entry): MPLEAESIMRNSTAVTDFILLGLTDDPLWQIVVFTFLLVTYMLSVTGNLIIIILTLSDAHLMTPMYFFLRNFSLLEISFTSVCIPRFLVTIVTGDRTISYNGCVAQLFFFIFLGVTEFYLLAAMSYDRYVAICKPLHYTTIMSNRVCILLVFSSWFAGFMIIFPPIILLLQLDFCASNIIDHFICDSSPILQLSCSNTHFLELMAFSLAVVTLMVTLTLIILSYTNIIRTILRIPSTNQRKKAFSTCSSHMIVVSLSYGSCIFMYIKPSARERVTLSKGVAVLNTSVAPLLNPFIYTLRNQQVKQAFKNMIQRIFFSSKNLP
Summary of the method: as §1

UniProt Q8VGJ5 = target: T4, UniProt Q8VGJ5
T4 sequence (whole entry): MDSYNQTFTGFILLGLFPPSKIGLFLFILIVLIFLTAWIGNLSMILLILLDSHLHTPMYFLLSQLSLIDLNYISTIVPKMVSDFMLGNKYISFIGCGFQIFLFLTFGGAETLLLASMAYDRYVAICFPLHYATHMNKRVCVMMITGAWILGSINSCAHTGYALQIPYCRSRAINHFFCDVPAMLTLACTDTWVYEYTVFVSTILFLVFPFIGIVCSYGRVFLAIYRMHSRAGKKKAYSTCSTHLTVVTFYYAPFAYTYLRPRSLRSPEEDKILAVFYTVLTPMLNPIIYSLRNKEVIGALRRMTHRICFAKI
Summary of the method: as §1

UniProt Q8VGK6 = target: UniProt Q8VGK6
Summary of the method: as §1

UniProt Q8VGL0 = target: T5, UniProt Q8VGL0
T5 sequence (whole entry): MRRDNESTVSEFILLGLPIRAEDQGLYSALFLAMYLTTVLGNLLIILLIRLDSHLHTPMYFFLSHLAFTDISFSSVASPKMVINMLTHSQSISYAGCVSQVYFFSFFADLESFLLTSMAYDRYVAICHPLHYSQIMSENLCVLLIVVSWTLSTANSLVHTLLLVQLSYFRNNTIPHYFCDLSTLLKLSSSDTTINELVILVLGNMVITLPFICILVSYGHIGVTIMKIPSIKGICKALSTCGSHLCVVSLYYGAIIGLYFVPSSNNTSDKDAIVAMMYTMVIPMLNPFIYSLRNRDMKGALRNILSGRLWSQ
Summary of the method: as §1

UniProt Q8VGL7 = target: T6, UniProt Q8VGL7
T6 sequence (whole entry): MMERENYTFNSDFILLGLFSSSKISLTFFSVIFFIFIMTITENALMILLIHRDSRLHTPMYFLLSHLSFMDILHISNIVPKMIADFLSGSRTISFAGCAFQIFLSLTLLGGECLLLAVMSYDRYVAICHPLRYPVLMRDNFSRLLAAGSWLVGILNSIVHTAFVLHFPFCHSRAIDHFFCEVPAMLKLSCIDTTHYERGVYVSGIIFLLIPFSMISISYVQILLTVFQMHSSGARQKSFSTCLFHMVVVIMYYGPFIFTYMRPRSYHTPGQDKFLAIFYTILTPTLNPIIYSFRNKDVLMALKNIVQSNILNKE
Summary of the method: as §1

UniProt Q8VGM2 = target: T7, UniProt Q8VGM2
T7 sequence (whole entry): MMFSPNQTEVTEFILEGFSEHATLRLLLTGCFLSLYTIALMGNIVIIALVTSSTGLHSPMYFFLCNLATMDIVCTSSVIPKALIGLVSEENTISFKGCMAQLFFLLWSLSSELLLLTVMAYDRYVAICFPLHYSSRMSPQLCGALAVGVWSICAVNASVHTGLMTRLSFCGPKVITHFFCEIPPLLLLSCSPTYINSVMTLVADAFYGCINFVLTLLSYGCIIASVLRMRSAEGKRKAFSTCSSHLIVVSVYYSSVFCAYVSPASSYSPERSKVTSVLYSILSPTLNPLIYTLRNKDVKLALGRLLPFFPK
Summary of the method: as §1

UniProt Q8VGP6 = target: T8, UniProt Q8VGP6
T8 sequence (whole entry): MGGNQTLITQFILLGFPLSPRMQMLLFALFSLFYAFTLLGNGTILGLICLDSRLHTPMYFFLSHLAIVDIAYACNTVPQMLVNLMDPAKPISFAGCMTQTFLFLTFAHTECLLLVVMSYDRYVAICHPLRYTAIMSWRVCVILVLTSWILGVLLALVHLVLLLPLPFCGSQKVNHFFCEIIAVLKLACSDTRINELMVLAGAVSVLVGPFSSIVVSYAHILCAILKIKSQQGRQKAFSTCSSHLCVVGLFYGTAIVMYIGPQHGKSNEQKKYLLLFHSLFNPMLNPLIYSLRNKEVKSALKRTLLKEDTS
Summary of the method: as §1

UniProt Q8VGQ3 = target: T9, UniProt Q8VGQ3
T9 sequence (whole entry): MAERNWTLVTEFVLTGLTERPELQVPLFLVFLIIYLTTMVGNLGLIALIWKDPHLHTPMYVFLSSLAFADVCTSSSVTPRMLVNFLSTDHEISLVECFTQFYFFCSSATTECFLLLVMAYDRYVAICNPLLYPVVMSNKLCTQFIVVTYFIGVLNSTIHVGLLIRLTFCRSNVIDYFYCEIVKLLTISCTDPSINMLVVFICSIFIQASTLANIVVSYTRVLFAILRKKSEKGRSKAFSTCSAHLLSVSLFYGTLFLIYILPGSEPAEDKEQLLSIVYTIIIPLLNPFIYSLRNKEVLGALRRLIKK
Summary of the method: as §1

UniProt Q8VGT4 = target: T10, UniProt Q8VGT4
T10 sequence (whole entry): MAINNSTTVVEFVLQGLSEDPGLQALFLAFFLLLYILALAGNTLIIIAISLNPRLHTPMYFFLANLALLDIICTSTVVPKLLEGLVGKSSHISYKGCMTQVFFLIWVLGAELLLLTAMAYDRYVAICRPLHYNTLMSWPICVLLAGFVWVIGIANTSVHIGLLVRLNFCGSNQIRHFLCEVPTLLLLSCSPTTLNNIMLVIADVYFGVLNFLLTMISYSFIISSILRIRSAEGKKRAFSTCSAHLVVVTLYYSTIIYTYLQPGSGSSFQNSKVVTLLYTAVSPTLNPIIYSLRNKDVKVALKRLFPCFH
Summary of the method: as §1

UniProt Q8VGU3 = target: T11, UniProt Q8VGU3
T11 sequence (whole entry): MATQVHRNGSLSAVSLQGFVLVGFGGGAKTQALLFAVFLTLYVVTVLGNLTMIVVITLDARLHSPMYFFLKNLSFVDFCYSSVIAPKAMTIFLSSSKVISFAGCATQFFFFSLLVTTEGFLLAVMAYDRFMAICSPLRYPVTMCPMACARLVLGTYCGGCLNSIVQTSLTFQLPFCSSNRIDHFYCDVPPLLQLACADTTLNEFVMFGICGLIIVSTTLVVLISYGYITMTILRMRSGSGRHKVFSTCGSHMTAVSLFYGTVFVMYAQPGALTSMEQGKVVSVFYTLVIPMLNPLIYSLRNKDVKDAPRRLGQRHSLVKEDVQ
Summary of the method: as §1

UniProt Q8VGV1 = target: T12, UniProt Q8VGV1
T12 sequence (whole entry): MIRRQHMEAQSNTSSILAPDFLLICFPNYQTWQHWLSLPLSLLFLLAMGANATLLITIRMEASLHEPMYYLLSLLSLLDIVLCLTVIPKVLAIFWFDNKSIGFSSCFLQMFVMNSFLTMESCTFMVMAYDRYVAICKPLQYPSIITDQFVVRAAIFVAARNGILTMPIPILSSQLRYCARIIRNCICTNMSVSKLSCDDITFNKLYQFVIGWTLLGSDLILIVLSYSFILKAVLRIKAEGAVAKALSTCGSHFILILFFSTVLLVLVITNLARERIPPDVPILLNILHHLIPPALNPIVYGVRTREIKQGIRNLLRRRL
Summary of the method: as §1

UniProt Q8VGV7 = target: T13, UniProt Q8VGV7
T13 sequence (whole entry): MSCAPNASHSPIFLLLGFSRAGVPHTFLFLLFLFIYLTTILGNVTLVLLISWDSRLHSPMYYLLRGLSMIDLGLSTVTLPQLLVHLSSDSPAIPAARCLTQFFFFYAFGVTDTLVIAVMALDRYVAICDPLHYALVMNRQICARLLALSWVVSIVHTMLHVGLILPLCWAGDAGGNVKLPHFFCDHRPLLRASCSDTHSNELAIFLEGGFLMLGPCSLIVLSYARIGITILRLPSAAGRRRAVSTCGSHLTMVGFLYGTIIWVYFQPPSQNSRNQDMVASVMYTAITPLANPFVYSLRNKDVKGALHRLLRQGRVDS
Summary of the method: as §1

UniProt Q8VGW5 = target: T14, UniProt Q8VGW5
T14 sequence (whole entry): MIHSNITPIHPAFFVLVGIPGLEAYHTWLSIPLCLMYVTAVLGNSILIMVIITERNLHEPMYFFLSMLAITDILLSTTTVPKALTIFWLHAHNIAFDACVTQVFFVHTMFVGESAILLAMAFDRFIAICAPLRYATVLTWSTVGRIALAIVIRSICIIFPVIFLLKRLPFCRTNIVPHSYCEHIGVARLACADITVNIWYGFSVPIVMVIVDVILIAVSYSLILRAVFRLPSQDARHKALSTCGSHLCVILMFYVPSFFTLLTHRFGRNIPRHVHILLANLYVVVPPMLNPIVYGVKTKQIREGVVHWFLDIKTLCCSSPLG
Summary of the method: as §1

UniProt Q8VGX3 = target: T15, UniProt Q8VGX3
T15 sequence (whole entry): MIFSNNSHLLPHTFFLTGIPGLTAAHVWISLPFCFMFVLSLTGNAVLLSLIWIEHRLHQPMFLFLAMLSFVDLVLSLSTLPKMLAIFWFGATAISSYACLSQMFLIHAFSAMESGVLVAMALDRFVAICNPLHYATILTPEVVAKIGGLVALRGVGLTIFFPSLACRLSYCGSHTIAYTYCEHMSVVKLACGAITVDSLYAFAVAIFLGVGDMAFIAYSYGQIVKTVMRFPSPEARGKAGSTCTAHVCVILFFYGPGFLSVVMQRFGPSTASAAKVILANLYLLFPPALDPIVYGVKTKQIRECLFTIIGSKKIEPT
Summary of the method: as §1

UniProt Q8VGX5 = target: T16, UniProt Q8VGX5
T16 sequence (whole entry): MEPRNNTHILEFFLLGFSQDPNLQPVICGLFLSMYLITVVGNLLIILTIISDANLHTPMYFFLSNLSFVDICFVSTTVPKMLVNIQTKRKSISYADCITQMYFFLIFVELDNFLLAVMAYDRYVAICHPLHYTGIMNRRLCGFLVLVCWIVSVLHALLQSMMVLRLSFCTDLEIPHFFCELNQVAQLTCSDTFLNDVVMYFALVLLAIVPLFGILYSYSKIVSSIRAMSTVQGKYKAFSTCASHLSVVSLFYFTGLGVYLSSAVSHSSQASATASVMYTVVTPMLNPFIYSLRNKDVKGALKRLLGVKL
Summary of the method: as §1

UniProt Q8VGX8 = target: T17, UniProt Q8VGX8
T17 sequence (whole entry): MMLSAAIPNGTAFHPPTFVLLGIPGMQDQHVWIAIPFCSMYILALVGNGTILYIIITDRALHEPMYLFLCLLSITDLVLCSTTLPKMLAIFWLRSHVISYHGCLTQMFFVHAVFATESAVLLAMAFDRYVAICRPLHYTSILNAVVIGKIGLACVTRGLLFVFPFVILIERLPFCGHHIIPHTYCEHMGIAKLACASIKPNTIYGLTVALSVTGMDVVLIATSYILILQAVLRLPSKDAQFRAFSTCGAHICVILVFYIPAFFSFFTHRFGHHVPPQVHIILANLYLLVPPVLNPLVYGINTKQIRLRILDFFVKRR
Summary of the method: as §1

UniProt Q8VGY6 = target: T18, UniProt Q8VGY6
T18 sequence (whole entry): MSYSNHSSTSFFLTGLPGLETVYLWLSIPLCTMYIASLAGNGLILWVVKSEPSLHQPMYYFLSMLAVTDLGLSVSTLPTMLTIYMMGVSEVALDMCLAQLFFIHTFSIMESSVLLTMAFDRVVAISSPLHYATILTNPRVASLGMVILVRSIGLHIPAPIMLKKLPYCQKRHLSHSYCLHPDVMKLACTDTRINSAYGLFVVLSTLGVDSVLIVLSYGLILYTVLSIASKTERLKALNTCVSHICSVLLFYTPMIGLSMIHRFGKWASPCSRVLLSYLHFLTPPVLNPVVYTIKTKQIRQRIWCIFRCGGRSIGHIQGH
Summary of the method: as §1

UniProt Q8VGZ2 = target: T19, UniProt Q8VGZ2
T19 sequence (whole entry): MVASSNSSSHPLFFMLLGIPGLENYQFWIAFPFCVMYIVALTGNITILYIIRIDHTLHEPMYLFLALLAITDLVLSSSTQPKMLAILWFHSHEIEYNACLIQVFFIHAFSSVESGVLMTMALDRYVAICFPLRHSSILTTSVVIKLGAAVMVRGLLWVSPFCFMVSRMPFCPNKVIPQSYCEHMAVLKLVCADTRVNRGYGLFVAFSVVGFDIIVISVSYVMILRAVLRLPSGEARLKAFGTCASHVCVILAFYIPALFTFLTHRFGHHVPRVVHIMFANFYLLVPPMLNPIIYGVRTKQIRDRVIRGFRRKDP
Summary of the method: as §1

Measured: odorant receptor agonist call;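 also: active if original authors judged signal statistically different from baseline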

C=C(C)C1CC=C(C)C(=O)C1 (stereo not given)
active: UniProt Q8VGH1 | UniProt Q8VGJ5 | UniProt Q8VGK6 | UniProt Q8VGX5
inactive: all other assays above
